Patent US4218477A, “Primary aminoacylanilides, methods of making the same and use as antiarrhythmic drugs” (priority 1976, dated 1980)

Experiment: Acute oral toxicity in mice (24 Hr. mortality)
Conditions: mouse, in vivo

`CCN(CC)CC(=O)Nc1c(C)cccc1C` [Lidocaine, 2-diethylamino-2',6'-acetoxylidide] showed an LD50 at 24 h of 224 mg/kg.
